Literature values in patent US10357460B2, “Particulate comprising a calcium-containing compound and a sugar alcohol” (Takeda Nycomed AS, priority 2004, dated 2019).

Settings: compared to sucrose; cited from earlier work

Row | Molecule | sweetening effect
1 | OC[C@@H](O)[C@@H](O[C@H]1O[C@H](CO)[C@@H](O)[C@H](O)[C@H]1O)[C@H](O)[C@@H](O)CO [maltitol, Maltitol] | < 1
2 | OC[C@@H](O)[C@@H](O)[C@H](O)[C@@H](O)CO [sorbitol, Sorbitol] | 0.55
3 | OC[C@@H](O)[C@H](O)[C@@H](O)CO [xylitol, Xylitol] | 1
4 | Isomalt | < 0.5
